# ChEMBL document CHEMBL1146210, “Potent and selective nonpeptidic inhibitors of procollagen C-proteinase” (J Med Chem, 2007)
# How the values were obtained:
# physchem = conditions: buffer, pH 4.3
# [1] = Lipophilicity, log D of the compound; conditions: octanol/water
smiles,measurement,setting,value
CS(=O)(=O)NCc1noc([C@H](CCCC2CCCCC2)CC(=O)NO)n1,solubility,physchem,4560 µg/mL
same,logD,[1],2.3
